Laboratory results: PubChem BioAssay AID504786 (Drosophila RNAi Screening Center, 2011)

Screen: 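Knock-downs reducing HIF reporter induction by the iron chelator DFO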 (primary screen)
Cell system: Drosophila S2 cells with a stable HIF luciferase reporter
Reagent: long dsRNA against Drosophila genes, about 0.2 µg dsRNA per well of a 384-well plate
Duration: three days of knock-down, then 20 h of DFO before reading
Treatment: desferrioxamine (DFO) at 100 µM, an iron chelator that mimics hypoxia, for 20 h
Detection: 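Firefly luciferase driven by the mouse ldh-a hypoxia-response element, measured after 20 h of 100 µM DFO; z-scores per plate, higher means more signal lost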
Scale: z-score: higher = stronger loss of HIF reporter signal
The deposit covers about 21,000 reagents; shown is an unselected part of those that have a named target and a result. 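Primary screen; positive scores mean lost reporter signal, so the sign may be inverted from the usual convention.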 Reagent sequences are not shown.

For Myb (Myb oncogene-like) [DRSC20260], the values are z-score, replicate 1 = 1.4; z-score, replicate 2 = 1.1.
Depletion of CG5078 [DRSC11762] came out at: z-score, replicate 1 = -0.3; z-score, replicate 2 = -0.3.
Knock-down of CG17824 (retired record) [DRSC10288] resulted in: z-score, replicate 1 = -0.3; z-score, replicate 2 = -1.1.
dgt1 (dim gamma-tubulin 1) [DRSC15301] scored z-score, replicate 1 = 1.1; z-score, replicate 2 = 1.9.
After knock-down of S-Lap2 (Sperm-Leucylaminopeptidase 2) [DRSC10628], the record shows z-score, replicate 1 = -0.3; z-score, replicate 2 = 0.2.
CG11333 [DRSC14301] scored z-score, replicate 1 = -0.4; z-score, replicate 2 = 0.1.
CG5282 [DRSC11775] gave z-score, replicate 1 = -0.3; z-score, replicate 2 = -0.5.
With knock-down of RpL7A (Ribosomal protein L7A) [DRSC18709], the record shows z-score, replicate 1 = 6.5; z-score, replicate 2 = 4.2.
CG12984 [DRSC11693] gave z-score, replicate 1 = -0.3; z-score, replicate 2 = -0.3.
For Ada (Adenosine deaminase) [DRSC14463], the entry reads z-score, replicate 1 = 0; z-score, replicate 2 = 0.3.
lbk (lambik) [DRSC07178] showed z-score, replicate 1 = -0.3; z-score, replicate 2 = -0.4.
Pgant5 (Polypeptide N-Acetylgalactosaminyltransferase 5) [DRSC03149] scored z-score, replicate 1 = -0.2; z-score, replicate 2 = -0.1.
Depletion of CG7856 [DRSC04896] came out at: z-score, replicate 1 = -0.2; z-score, replicate 2 = -0.2.
Against Rad23 [DRSC17167], the values are z-score, replicate 1 = -0.1; z-score, replicate 2 = 0.
Knock-down of rn (rotund) [DRSC12500] gave: z-score, replicate 1 = -0.1; z-score, replicate 2 = -1.1.
Depletion of rn (rotund) [DRSC12543] came out at: z-score, replicate 1 = -0.4; z-score, replicate 2 = -0.8.
After knock-down of rn (rotund) [DRSC12544], the screen gave z-score, replicate 1 = 0; z-score, replicate 2 = -0.1.
Knock-down of rn (rotund) [DRSC12546] resulted in: z-score, replicate 1 = -0.4; z-score, replicate 2 = -0.5.
Silencing of Mink (Mitotic spindle and nuclear protein) [DRSC14291] resulted in: z-score, replicate 1 = -0.2; z-score, replicate 2 = -0.5.
After knock-down of Hayan [DRSC19989], the record shows z-score, replicate 1 = -0.2; z-score, replicate 2 = -0.6.
Knock-down of CG17826 [DRSC10289] came out at: z-score, replicate 1 = -0.3; z-score, replicate 2 = -0.6.
For CG11147 [DRSC02129], the entry reads z-score, replicate 1 = -0.1; z-score, replicate 2 = -0.3.
Against CG8003 [DRSC10946] the deposit lists z-score, replicate 1 = -0.3; z-score, replicate 2 = -0.1.
Elba3 (Early boundary activity 3) [DRSC00469] scored z-score, replicate 1 = -0.3; z-score, replicate 2 = -0.2.
Against GC1 [DRSC15322] the deposit lists z-score, replicate 1 = -0.3; z-score, replicate 2 = 0.
Pde8 (Phosphodiesterase 8) [DRSC04503] scored z-score, replicate 1 = -0.2; z-score, replicate 2 = 0.1.
lin (lines) [DRSC07644] showed z-score, replicate 1 = -0.2; z-score, replicate 2 = -0.3.

Reformatted: 5 of the entries above
{"gene knocked down":"rn (rotund)","amplicon":"DRSC12543","z-score, replicate 1":-0.4,"z-score, replicate 2":-0.8}
{"gene knocked down":"rn (rotund)","amplicon":"DRSC12544","z-score, replicate 1":0,"z-score, replicate 2":-0.1}
{"gene knocked down":"rn (rotund)","amplicon":"DRSC12546","z-score, replicate 1":-0.4,"z-score, replicate 2":-0.5}
{"gene knocked down":"Mink (Mitotic spindle and nuclear protein)","amplicon":"DRSC14291","z-score, replicate 1":-0.2,"z-score, replicate 2":-0.5}
{"gene knocked down":"Hayan","amplicon":"DRSC19989","z-score, replicate 1":-0.2,"z-score, replicate 2":-0.6}
